PubChem BioAssay AID686943, Drosophila RNAi Screening Center, 2013
Test: 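Search across the genome for regulators of signalling from receptor tyrosine kinase to ERK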 (primary screen). Cells: Drosophila S2R+ haemocyte-like cells expressing YFP-tagged ERK (Rolled). Reagents: long dsRNA against Drosophila genes. Conditions: insulin stimulation versus unstimulated cells; dose and duration not given. Measurement: 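Per-plate z-scores of phospho-ERK immunostaining normalised to YFP-tagged ERK, measured with and without insulin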. Reading the numbers: replicate 1, z-score of dpERK with insulin and replicate 2, z-score of dpERK with insulin: higher = more active ERK per ERK-YFP after insulin; replicate 1, z-score of dpERK under basal conditions: higher = more basal active ERK per ERK-YFP; replicate 1, z-score of ERK-YFP with insulin: higher = more YFP-tagged ERK signal.
The screen tested about 23,000 reagents; this is a random part of those that have a named target and a result. 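Extra replicates exist only for a retested subset of genes; insulin dose and duration not given; both raised and lowered dpERK matter.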 Names joined by + are all predicted targets of the reagent. Not given: the amount of reagent, the time to read-out.

no.	gene knocked down	dsRNA	replicate 1, z-score of dpERK with insulin	replicate 2, z-score of dpERK with insulin	replicate 1, z-score of dpERK under basal conditions	replicate 1, z-score of ERK-YFP with insulin
1	U3-55K (U3 small nuclear riboprotein factor 55K)	DRSC05982	0.56	0.86	0.17	0.12
2	CG8004	DRSC10947	-1.25	-1.34	-0.34	0.4
3	CG8229	DRSC07114	0.23	0.11	0.38	-0.65
4	CG17211	DRSC02587	0	0.66	0.47	0.42
5	mRpL28 (mitochondrial ribosomal protein L28)	DRSC02724	-0.04	0.47	-0.06	1.33
6	CG13040	DRSC09921	-0.46	-0.95	0.26	-0.03
7	CG34300	DRSC13977	-0.58	0.12	0.37	1.27
8	CG16926	DRSC06637	0.54	-0.1	1.47	0.11
9	CG2909	DRSC18241	-0.8	0.09	-0.52	0.12
10	MED30 (Mediator complex subunit 30)	DRSC08516	0.32	0.55	-0.66	0.41
11	alpha-Est4 (alpha-Esterase-4)	DRSC12616	0.54	0.56	-0.67	-0.18
12	CG40439	DRSC22707	0.18	0.4	0.51	-0.9
13	DIP-theta (Dpr-interacting protein theta)	DRSC00885	0.43	-0.02	0.76	-0.07
14	DIP-theta (Dpr-interacting protein theta)	DRSC02340	0.44	0.62	-1.81	-0.59
15	DIP-theta (Dpr-interacting protein theta)	DRSC02341	-0.99	0.26	-0.55	2.06
16	CG34434	DRSC18134	-2	-0.83	-0.48	0.63
17	Ent2 (Equilibrative nucleoside transporter 2)	DRSC02124	-0.15	-0.31	0.29	-0.3
18	Nup37 (Nucleoporin 37kD)	DRSC14419	0.67	-0.25	-0.88	-0.42
19	eIF4B (eukaryotic translation initiation factor 4B)	DRSC20983	-0.69	-0.44	-1.85	0.52
20	CG33333	DRSC13233	-2.12	0.49	-1.22	0.27
21	Tcs3 (Threonyl-carbamoyl synthesis 3)	DRSC10461	0.39	-0.06	0.5	0.68
22	CG32214	DRSC09613	0.68	0.08	1.14	-0.14
23	Oatp58Db (Organic anion transporting polypeptide 58Db)	DRSC04364	0.33	-0.6	-0.28	-0.75
24	CG15035	DRSC17967	-0.29	0.91	0.43	0.31
25	Asph (Aspartyl beta-hydroxylase)	DRSC06783	-0.41	-0.06	-0.95	0.43
26	Asph (Aspartyl beta-hydroxylase)	DRSC07171	0.88	0.65	-0.16	0.03
27	yellow-d	DRSC04589	0.67	-0.47	0.45	0.12
28	Lcp3 (Larval cuticle protein 3)	DRSC07457	0.97	0.59	0.14	0.17
29	slim (scruin like at the midline)	DRSC06921	-0.15	-0.59	-0.05	-0.57
30	Vago	DRSC19833	0.81	0.04	-0.32	0.38
31	CG14499	DRSC06470	0.79	-0.03	0.36	-0.29
32	Mnn1 (Menin 1)	DRSC03368	-0.33	0.59	-0.05	1.33
33	CG15472	DRSC18055	0.98	0.74	0.02	0.12
34	CG13838	DRSC14688	1.18	-0.68	0.73	-0.79
35	CG42512 + CG32573	DRSC19532	0.33	-0.27	0.13	0.14
36	CG42512 + CG32573	DRSC19906	0.06	0.17	0.23	0.95
37	CG42512 + CG32573	DRSC22782	1.65	0.3	0.11	-1.13
38	Der-1 (Derlin-1)	DRSC00301	-0.62	-0.4	0.44	1.39
39	CG17163	DRSC20901	-0.83	-0.7	-0.77	1.45
40	wa-cup (walker cup)	DRSC12511	0.07	-0.91	0.51	0.26
41	CG42552 (retired record)	DRSC11512	-0.18	-0.26	-0.82	-0.3
42	CG31088	DRSC13123	0.47	0.44	0.02	0.08
43	Abcd1 (ATP binding cassette subfamily D member 1)	DRSC17157	-0.19	-0.11	-0.31	0.36
44	nahoda	DRSC03954	-0.13	-0.09	0.32	1.91
45	nahoda	DRSC04126	0.34	0.31	0.27	-1.12
46	CG34107	DRSC14554	0.34	0.45	-0.08	-0.07
47	CG8945	DRSC20129	-0.33	-0.8	-0.4	0.03
48	CG8945	DRSC20130	-0.45	-0.06	0.41	1.06
49	CG13955	DRSC06443	-0.72	0.63	-0.51	0.59
50	CG31211	DRSC14953	0.1	1.48	-0.02	0.15
51	CG31211	DRSC15344	1.31	1.66	0.19	0.73
52	CG31211	DRSC21478	-1.26	-0.62	2.08	0.18
53	CG2861	DRSC18229	0.21	-0.18	-0.11	0.03
54	LSm1 (Like Sm 1)	DRSC04458	-0.52	0.09	0.23	-0.03
55	Gr98b (Gustatory receptor 98b)	DRSC21675	0.55	-0.41	0.17	-0.57
56	CG5388	DRSC15789	0.13	0.48	0.34	-0.81
57	CG1143	DRSC08188	0.4	0.81	0.4	-0.71
58	nAChRalpha4 (nicotinic Acetylcholine Receptor alpha4)	DRSC11925	-0.41	-0.2	0.19	0.54
59	nAChRalpha4 (nicotinic Acetylcholine Receptor alpha4)	DRSC11929	1.14	0.5	1.54	-0.3
60	CG13231	DRSC06351	0.58	0.26	0.24	-0.2
61	Oseg2 (Outer segment 2)	DRSC08343	0.46	-0.15	-0.57	0.2
62	CG9445	DRSC05006	-0.28	-0.13	-0.31	0.06
63	CG9641	DRSC00721	0.11	-0.16	0.14	0.55
64	sotv + CG10731	DRSC05930	-0.15	-0.16	-0.2	0.39
65	sotv + CG10731	DRSC05997	0.35	0.38	-0.04	-0.22
66	CD98hc (CD98 heavy chain)	DRSC15453	0.01	0.21	0.86	0.21
67	CG14785	DRSC18604	0.22	0.41	-0.28	-1.24
68	EAChm (Enhancer of Acetyltransferase Chameau)	DRSC10010	0.18	-0.45	1.19	0.76
69	betaTub97EF (beta-Tubulin at 97EF)	DRSC15666	-0.69	-0.66	1.07	-0.87
70	betaTub97EF (beta-Tubulin at 97EF)	DRSC15667	0.38	-0.25	0.35	0.21
71	betaTub97EF (beta-Tubulin at 97EF)	DRSC15668	0.33	-0.1	0.44	-0.02
72	PGRP-SC1a (Peptidoglycan recognition protein SC1a)	DRSC06482	-0.13	0.29	-0.39	0.02
73	Rph (Rabphilin)	DRSC17790	-1.7	-0.79	-0.83	1.27

6 entries from above, ordered by “replicate 1, z-score of dpERK under basal conditions”, ascending.
gene knocked down	dsRNA	replicate 1, z-score of dpERK with insulin	replicate 2, z-score of dpERK with insulin	replicate 1, z-score of dpERK under basal conditions	replicate 1, z-score of ERK-YFP with insulin
eIF4B (eukaryotic translation initiation factor 4B)	DRSC20983	-0.69	-0.44	-1.85	0.52
CG33333	DRSC13233	-2.12	0.49	-1.22	0.27
Oatp58Db (Organic anion transporting polypeptide 58Db)	DRSC04364	0.33	-0.6	-0.28	-0.75
CG15035	DRSC17967	-0.29	0.91	0.43	0.31
Tcs3 (Threonyl-carbamoyl synthesis 3)	DRSC10461	0.39	-0.06	0.5	0.68
CG32214	DRSC09613	0.68	0.08	1.14	-0.14
